This is one part of the list.

The test concerns the target T1, OsSMF1 (Oryza sativa, UniProt Q6ZLB0 1-436).
T1 sequence: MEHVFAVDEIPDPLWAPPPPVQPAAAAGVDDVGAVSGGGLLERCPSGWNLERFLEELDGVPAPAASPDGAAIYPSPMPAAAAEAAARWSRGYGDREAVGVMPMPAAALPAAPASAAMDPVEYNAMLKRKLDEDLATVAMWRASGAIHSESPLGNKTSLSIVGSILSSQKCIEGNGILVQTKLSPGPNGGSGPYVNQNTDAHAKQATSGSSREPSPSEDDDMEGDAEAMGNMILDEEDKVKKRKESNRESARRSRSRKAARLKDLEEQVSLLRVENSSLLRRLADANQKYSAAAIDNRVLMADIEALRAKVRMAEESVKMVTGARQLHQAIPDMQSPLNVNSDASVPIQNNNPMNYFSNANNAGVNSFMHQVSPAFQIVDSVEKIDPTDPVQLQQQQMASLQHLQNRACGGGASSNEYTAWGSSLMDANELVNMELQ
Put plainly: protein-binding microarray (RPBM); PBS, 2% BSA, 51.3 ng/ul salmon testes DNA, 50 uM zinc acetate, 200 nM TF, 25 C, 1 h; high values mean tight binding. The following applies: protein: recombinant; tags: N-terminal polyhistidine and DsRed monomer fusion (pET32a); chain copies: 2; label: CyDye5-dUTP incorporated in the synthesized complementary strand; 3' TTTTT single-stranded linker to array surface; dsDNA, one strand shown. The procedure, abridged: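 Binding signal here means per-feature fluorescence intensity in arbitrary units. The values were read on an Axon 4000B scanner after a custom Agilent array, double-stranded by primer extension with Cy5-dUTP, was incubated with 200 nM protein at 25 °C for 1 h in PBS with 2% BSA, salmon testes DNA and 50 µM zinc acetate, then washed. The proteins were transcription factors with an N-terminal polyhistidine tag and DsRed, expressed in E. coli BL21-CodonPlus and purified on Ni–NTA.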
In the case of “GCGAACAGCCGCCGCTTCCAGTCATCCTCTTTGTGTGAGCCGGAGTCACCTAGTGCAG”, the binding signal was 3630 fluorescence intensity (a.u.).

As for “CGCCGCCACCACTAGCTCGCTTCATTTCCACCGCACGCACCGGAGTCACCTAGTGCAG”, the binding signal is 3330 fluorescence intensity (a.u.).

For “GCCAACGCCGTGCCGTGTCCATCTACCGCCGCCCACAACTCGGAGTCACCTAGTGCAG”, the binding signal was 3290 fluorescence intensity (a.u.).

On to “TTTCATCCTCTCGTTGTAACACGCAACGTGTTCAAACGTGCGGAGTCACCTAGTGCAG”, for which the binding signal was 5740 fluorescence intensity (a.u.).

Consider “CGCCGCCTCCGCCTCCGCCTCCGCTGCTCGCCGACCGGAGCGGAGTCACCTAGTGCAG”, for which the binding signal is 4680 fluorescence intensity (a.u.).

As to “TGTCGTCCCGTACTACGTCATCTCCAGTCATCTTCTCCCACGGAGTCACCTAGTGCAG”, the binding signal is 12600 fluorescence intensity (a.u.).

Consider “CTGGCTGACAAGTGGATCCAGTTCCACATGTCAGTGGCAGCGGAGTCACCTAGTGCAG”, for which the binding signal was 3590 fluorescence intensity (a.u.).

Consider “CCGCGTACGCGTACGTATAACCTCGCGTCTTTACAGTCTACGGAGTCACCTAGTGCAG”, for which the binding signal is 3650 fluorescence intensity (a.u.).

Turning to “TGTTTAGATAAGGGGTATAAAGTTTTAGCGTGTCACATTGCGGAGTCACCTAGTGCAG”, the binding signal was 3450 fluorescence intensity (a.u.).

Turning to “CAACACCCGTCCGCCAGAGAAGACCATCGTGACGCCACTCCGGAGTCACCTAGTGCAG”, the binding signal was 4880 fluorescence intensity (a.u.).

Turning to “CAGAGGAAATGTGGGGCCCACGGGTCAGTGGGACGTGGCCCGGAGTCACCTAGTGCAG”, the binding signal was 4680 fluorescence intensity (a.u.).

Take “GGCGACGCACCACGTCGGCCGGCCGCCACCGCCGGAGAGGCGGAGTCACCTAGTGCAG”: the binding signal is 3330 fluorescence intensity (a.u.).

As to “CATGGTATCTGTGACTCTTTTCGTTGGTCGGTTTGACATGCGGAGTCACCTAGTGCAG”, the binding signal was 3740 fluorescence intensity (a.u.).

In the case of “ACCGCACCGCGCGGCACGCCCACGCACGCACGCTCCGCCCCGGAGTCACCTAGTGCAG”, the binding signal was 4800 fluorescence intensity (a.u.).

As for “ACCGCTGGTCTTGGGGTGGCCTGACACGACACGACACGAGCGGAGTCACCTAGTGCAG”, the binding signal was 5250 fluorescence intensity (a.u.).

For “AAACGCGTCCAGCTCATCGTCGCCGGCGCCTCGTTTCACCCGGAGTCACCTAGTGCAG”, the binding signal is 8340 fluorescence intensity (a.u.).

Turning to “TCTCGTAGTTTACAGGTGGAATCTATAATTTGTTTTGTTACGGAGTCACCTAGTGCAG”, the binding signal is 3350 fluorescence intensity (a.u.).

As for “AGAGGAGGAAGAAGAGGAGGGGTGACAATGATATGTGGGGCGGAGTCACCTAGTGCAG”, the binding signal was 5560 fluorescence intensity (a.u.).

With “TTCTAATTAATATGTCATTAGCAAATGTTTACTGTACCACCGGAGTCACCTAGTGCAG”, the binding signal was 4380 fluorescence intensity (a.u.).

Consider “CTCCTGCGTGGCGTACGCCGCGTCCGACGTCAGGGGAGGCCGGAGTCACCTAGTGCAG”, for which the binding signal is 7020 fluorescence intensity (a.u.).

On to “TCCAGCACCGGCGCCTGCATCAGCACCATCACTGGAGCCGCGGAGTCACCTAGTGCAG”, for which the binding signal was 4230 fluorescence intensity (a.u.).

Turning to “CGCCGGCATCTCCTCCTCCCCACGCCGCAACGTGTCCGCCCGGAGTCACCTAGTGCAG”, the binding signal is 5630 fluorescence intensity (a.u.).

For the sequence “TAGGCCCACACCTAGTCAGCTCAATCGAAATACAACCCACCGGAGTCACCTAGTGCAG”, the binding signal is 3450 fluorescence intensity (a.u.).

“GCACCGGTTTTGATAGTTGAGGGACTTGTTGTATCTGGTTCGGAGTCACCTAGTGCAG”: the binding signal is 29200 fluorescence intensity (a.u.).

Consider “AGGTGTAAGACTGCCACGTGTCCTCTCGCCTCCACATTACCGGAGTCACCTAGTGCAG”, for which the binding signal is 25800 fluorescence intensity (a.u.).

In the case of “TCAAAAGAACAATGCCCAAAGTCTTCGTTGCCTTCAATTGCGGAGTCACCTAGTGCAG”, the binding signal was 3510 fluorescence intensity (a.u.).

As for “AGTGCCCCACTCTGGATTTCGATAATTACGTATATGGGTCCGGAGTCACCTAGTGCAG”, the binding signal is 3280 fluorescence intensity (a.u.).

Regarding “CCCGAGTCTTTAATCACTTTTGCTTACGTGTATGGTTAGGCGGAGTCACCTAGTGCAG”, the binding signal was 22900 fluorescence intensity (a.u.).

Regarding “CATGAGGAGGATGCTGACGTCTCGAGGTGAAGGCCGCAATCGGAGTCACCTAGTGCAG”, the binding signal is 4970 fluorescence intensity (a.u.).

As for “CATTCGACGCGTGGCGTCCCACTTGGCGGCGTAGGAGACGCGGAGTCACCTAGTGCAG”, the binding signal was 5600 fluorescence intensity (a.u.).

As to “GATTCCGTGCATCATTCCGTGCTGACCACATAATGTAGATCGGAGTCACCTAGTGCAG”, the binding signal is 3830 fluorescence intensity (a.u.).

In the case of “TCTTGCATCATACCTCCTCTTCCGGTATGACTTGCTGAGTCGGAGTCACCTAGTGCAG”, the binding signal is 3160 fluorescence intensity (a.u.).

With “AGAGCTTCGCATGACGCCTGCCGTTTCGGCCCATTTGAGCCGGAGTCACCTAGTGCAG”, the binding signal is 3730 fluorescence intensity (a.u.).

In the case of “GAGGTGGGCGTGATGATCTCTACAGGCAGCGGCTCGTCGTCGGAGTCACCTAGTGCAG”, the binding signal was 23900 fluorescence intensity (a.u.).

With “CTTATGCCTACAAAGATAGCACATGCTTTGTCTGGCATAGCGGAGTCACCTAGTGCAG”, the binding signal is 3690 fluorescence intensity (a.u.).

Take “CCACGTGGATCCCACGCTGAGTCAGCTACCATGTCAGAAACGGAGTCACCTAGTGCAG”: the binding signal is 14400 fluorescence intensity (a.u.).

For the sequence “CGTAGAAGAGAGGTCCCATGGTGCAGCTGACCCACCCGAACGGAGTCACCTAGTGCAG”, the binding signal was 3170 fluorescence intensity (a.u.).

“TTTCTAGATTTGGGGTTTGTTTCTTTGGCAGAATCATGTACGGAGTCACCTAGTGCAG”: the binding signal was 3290 fluorescence intensity (a.u.).

Take “TTATTACCACATCGTTTTGCGTGAAACACTTAATCTTTATCGGAGTCACCTAGTGCAG”: the binding signal is 3470 fluorescence intensity (a.u.).

In the case of “ACTTAATTTGGCTCTTTAGGCCTTTACCAACGTGTCACTCCGGAGTCACCTAGTGCAG”, the binding signal was 6080 fluorescence intensity (a.u.).

“TCTAAGTGGTAGATGCCGTCGTCATTGTTGTAGTAGATGGCGGAGTCACCTAGTGCAG”: the binding signal was 7190 fluorescence intensity (a.u.).

Consider “CCTTGGCCTTAATTATTGACGTAGTACGTACACTTGATGCCGGAGTCACCTAGTGCAG”, for which the binding signal is 4250 fluorescence intensity (a.u.).
